System: corneal neovascularization
Test: Inhibition of corneal neovascularization in cauterized rat corneas, topical application four times per day for four days
Type: in vivo
Conditions: Experiment B; topical 0.1%; versus vehicle
Description: The ability of etianic acids to inhibit angiogenesis was evaluated in vivo in rats. Each animal had its corneas cauterized with silver nitrate/potassium nitrate. The cauterization causes the normally avascular cornea to undergo neovascularization (anglogenesis). This animal model, refined by Proia et al., Lab. Invest. 58: 473-479 (1988) and now a well-established assay, quantifies corneal neovascularization by computerized image analysis. […] Ophthalmol. Vis. Science 30: 1588-1593 (1989), and can provide a more definitive evaluation of angiostatic activity than models using the chorioallantoic membrane in the chick egg or the rabbit eye model. See Proia et al., Exp. Eye Res. (in press--to be published in Vol. 57 in 1993).
Female rats were obtained from Zivic-Miller Laboratories, Zelienople, Pa. […]
Steroids were formulated in vehicle containing 10 percent Tween 20 (polyoxyethylene sorbitan monolaurate) dissolved in 0.9 percent saline with percent (by volume) 0.2M tris (hydroxymethyl)aminomethane, pH 7.4. The steroids dissolved readily when the pH was adjusted to 7.0-8.0 with NaOH or KOH. […]
After four days of treatment, the animals were euthanized by rapid asphyxiation in a carbon dioxide chamber. […] After dehydration with alcohols, cleaning with xylene, mounting, and drying, the area of each cornea and the length of blood vessels were determined by computerized image analysis. […]

Which “Percent Inhibition of neovascularization” value does the source give for `C[C@@H]1C[C@H]2[C@@H]3CCC4=CC(=O)C=C[C@]4(C)[C@@]3(F)[C@@H](O)C[C@]2(C)[C@@]1(O)C(=O)COP(=O)(O)O` [dexamethasone sodium phosphate, reference compound] here?
The value was 67%.
